PubChem BioAssay AID686943, Drosophila RNAi Screening Center | 2013

Test: 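Search across the genome for regulators of signalling from receptor tyrosine kinase to ERK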 (primary screen)
System: Drosophila S2R+ haemocyte-like cells expressing YFP-tagged ERK (Rolled)
Reagent: long dsRNA against Drosophila genes
Conditions: insulin stimulation versus unstimulated cells; dose and duration not given
Detection: 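Antibody staining for doubly phosphorylated ERK divided by ERK-YFP signal, as plate z-scores, in insulin-treated and untreated cells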
Reading the numbers: replicate 1, z-score of dpERK with insulin and replicate 2, z-score of dpERK with insulin: higher = more active ERK per ERK-YFP after insulin
The screen tested about 23,000 reagents; below is an unselected part of those with a known target gene and a result. 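Extra replicates exist only for a retested subset of genes; insulin dose and duration not given; both raised and lowered dpERK matter.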 Further read-outs or replicates are left out here. Not stated in the record: the amount of reagent, the time to read-out.

gene knocked down	amplicon	replicate 1, z-score of dpERK with insulin	replicate 2, z-score of dpERK with insulin
CG2955	DRSC00552	-0.57	-0.16
CG2691	DRSC19866	-0.67	-0.36
CR42546	DRSC03711	-0.23	0.2
CG32333	DRSC08627	0.14	-0.37
CG32333	DRSC08629	-1.22	-0.89
CG10265	DRSC05986	-0.46	0.36
CG10265	DRSC21680	-0.02	0.32
Su(fu)	DRSC16871	0.11	-0.36
CG33784	DRSC12764	1.21	0.15
FIG4	DRSC00515	0.8	1.26
CG32651	DRSC18941	0.69	2.61
Dlic	DRSC19824	-0.35	-0.65
CG31051	DRSC15034	2	-0.17
Muc68D	DRSC10569	0.52	0.01
Alp7	DRSC04355	-2.72	0.25
CG6912	DRSC16132	0.55	0.45
CadN	DRSC03286	0.75	0.43
MED20	DRSC03463	0.46	-0.13
Ent3	DRSC09822	-1.7	0.69
Tbp	DRSC04662	2.1	0.62
gammaTub23C	DRSC00820	-0.28	0.07
sut1	DRSC07700	-0.19	1.02
LysX	DRSC08678	-0.02	0.13
temp	DRSC18271	0.07	-0.22
spdi	DRSC18487	0.34	0.16
spdi	DRSC18488	-0.02	-0.9
coil	DRSC07242	0.37	0.46
scaf6	DRSC10075	0.56	-0.06
scaf6	DRSC10676	-0.09	1.05
scaf6	DRSC10678	2.99	0.07
CG12535	DRSC17838	0.19	1.11
CG8468	DRSC07190	-0.75	0.53
CG15406	DRSC00420	0.38	0.62
CG13949	DRSC00367	0.28	0.08
Tasp1	DRSC10495	-0.19	-0.01
sax	DRSC07675	-0.32	0.34
cno	DRSC12054	-1.25	0.01
cno	DRSC12374	-1.45	-1.54
fra	DRSC07621	-0.22	-0.58

In a second layout: results already given.
{"gene knocked down":"CadN","amplicon":"DRSC03286","replicate 1, z-score of dpERK with insulin":0.75,"replicate 2, z-score of dpERK with insulin":0.43}
{"gene knocked down":"MED20","amplicon":"DRSC03463","replicate 1, z-score of dpERK with insulin":0.46,"replicate 2, z-score of dpERK with insulin":-0.13}
{"gene knocked down":"Ent3","amplicon":"DRSC09822","replicate 1, z-score of dpERK with insulin":-1.7,"replicate 2, z-score of dpERK with insulin":0.69}
